Laboratory results from PubChem BioAssay AID1259415 (National Center for Advancing Translational Sciences (NCATS), 2018).
In all, about 410,000 compounds went through this assay and about 18,000 (4.4%) were called active. Inconclusive results, whose numbers are uncertain, are shown with a selection of clear calls. Rule as the data show it: active = activity change below about -60%; inconclusive = no clear call, values can overlap the other calls; inactive = above about -39%.

Experiment: qHTS Assay for inhibitors of the human cytomegalovirus (HCMV)
Conditions: HFF cells, HCMV-luciferase reporter, 72 h; at 57.5 µM; stronger effect = lower value
Outline: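 Inhibition of viral replication was scored as loss of reporter luminescence in HFFs infected with HCMV-luciferase (MOI 1 PFU/cell) for 72 h; compounds tested at 2 doses, normalized to buffer and Salinomycin controls.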
% is scaled to controls: 0 for no effect and ±100 for the full control effect.

SMILES	activity change, negative = inhibition
CCN(CC)CCCNC(=O)c1oc2c(c1C)-c1nn(Cc3ccc(Cl)cc3)cc1CC2	active: -96.6%
CCOc1ccccc1C1c2[nH]c3ccccc3c2C[C@H]2C(=O)N(C3CCN(Cc4ccccc4)CC3)CC(=O)N12 (stereo partly drawn)	inconclusive: -47.1%
Nc1nc(=S)c2ncn(C3OC(CO)C(O)C3O)c2[nH]1 (stereo not drawn)	inactive: -10.5%
COc1ccc(-c2nc(SCC(=O)NCCCc3ccccc3)n[nH]2)cc1	active: -66.7%
CCOC(=O)CN(C(=O)COc1ccc2c(C)cc(=O)oc2c1)c1ccc(OCC)cc1	inconclusive: -46.4%
Cc1noc(C)c1COc1cccc(C(=O)Nc2ccccc2)c1	inactive: -32.1%
CCOc1ccc(OCCC(=O)OCC(=O)N(CC)c2c(N)n(Cc3ccccc3)c(=O)[nH]c2=O)cc1	inactive: -20.3%
O=C(NCc1ccc(F)cc1)C(=O)NCC1OCCN1C(=O)c1cccs1 (stereo not drawn)	inconclusive: -42.8%
C/C(=N/NC(=O)CSCc1ccc(Cl)cc1)c1cccc(NC(=O)c2ccccc2)c1	inconclusive: -57%
CCOC(=O)C(NC(C)=O)C(O)c1ccc([N+](=O)[O-])cc1 (stereo not drawn)	inconclusive: -43.5%
CNC(=S)N1N=C2c3ccccc3CCC2C1c1ccccc1Cl (stereo not drawn)	inconclusive: -44.5%
COCCN(Cc1cc2cc3c(cc2nc1Cl)OCO3)C(=O)c1ccc(C)cc1	active: -69.5%
N=c1c(C(=O)NCCN2CCOCC2)cc2c(=O)n3ccccc3nc2n1CCc1ccccc1	inactive: -37.3%
Cc1ccc(CN2CCN(/N=C/c3ccco3)CC2)c(C)c1	inconclusive: -59%
CCn1c(CC(=O)Nc2ccc(Cl)c(Cl)c2)nnc1SCc1ccc(Cl)cc1	active: -100%
CC(C)(C)C1CCC(CN2C(Nc3ccccc3)=NC[C@@H]2Cc2ccccc2)CC1 (stereo partly drawn)	active: -76.4%
CN(C)S(=O)(=O)N1CCC(Oc2cccc(C(=O)NCCC3=CCCCC3)c2)CC1	inconclusive: -54.8%
CCN(C)C(=O)C1=CN2CCN(Cc3ccccc3C(F)(F)F)C(=O)N=C2O1	inactive: 14.3%
NC(=O)c1ccccc1NC(=S)NC(=O)CCc1ccccc1	inconclusive: -56.9%
COc1ccc(N(C)C(=O)NCc2noc3ccc(C)cc23)c(OC)c1	active: -81.6%
O=S(=O)(Nc1ccc(Cc2ccncc2)cc1)c1ccc(Br)cc1	active: -62.5%
O=C(CCCN1C(=O)/C(=C/c2cccs2)SC1=S)Nc1cccc(O)c1	active: -99.7%
CC(C)c1ccc(C(=O)N2CCOCC2c2cc(C(=O)Nc3ccccc3)no2)cc1 (stereo not drawn)	inactive: 7.57%
FC(F)(F)c1ccc(CN2C[C@@H]3C(c4ccc(Cl)nc4)C4(c5ccccc5)CC3(C4)[C@H]2c2ccccc2)cc1 (stereo partly drawn)	active: -65.1%
C1=CC(Cc2cncs2)c2ccccc21 (stereo not drawn)	inconclusive: -52.3%
CCN(C(=O)CSc1nc2cc(S(=O)(=O)N(CC)CC)ccc2n1CC)C1CCS(=O)(=O)C1 (stereo not drawn)	inconclusive: -45%
N=C1CCCN1CC(=O)c1ccc(Br)cc1	inactive: -11.4%

Arranged by formula weight (smallest number first): 3 of the compounds above
SMILES	activity change, negative = inhibition
CCN(C)C(=O)C1=CN2CCN(Cc3ccccc3C(F)(F)F)C(=O)N=C2O1	inactive: 14.3%
CC(C)(C)C1CCC(CN2C(Nc3ccccc3)=NC[C@@H]2Cc2ccccc2)CC1 (stereo partly drawn)	active: -76.4%
N=c1c(C(=O)NCCN2CCOCC2)cc2c(=O)n3ccccc3nc2n1CCc1ccccc1	inactive: -37.3%

(more compounds)

SMILES	activity change, negative = inhibition
Cc1nc2ccccc2c2oc(C(=O)N3CCN(C4CCCCC4)CC3)cc12	inconclusive: -47%
COc1ccc(C(=O)CN2C(=O)N(c3cc(C)cc(C)c3)S(=O)(=O)c3ccccc32)cc1	inactive: -6.19%
N#C/C(=C\c1ccc(N2CCOCC2)o1)c1ccccc1	inactive: 51.9%
CCOC(=O)[C@@H]1[C@H]2COc3ccccc3[C@H]2N2C(=O)N(c3cccc(Cl)c3)C(=O)[C@]12C	inactive: -23.3%
CCOC(=O)CN1C(=O)C(Sc2n[nH]c(-c3ccc(C)cc3)n2)CCc2ccccc21 (stereo not drawn)	inconclusive: -45.6%
Cc1cc(N2CCOCC2)nc2ccc(NC(=S)N3CCCCC3C)cc12 (stereo not drawn)	inconclusive: -45.9%
COCCn1c(C)cc(C(=O)COC(=O)C23CC4CC(CC(O)(C4)C2)C3)c1C	inactive: 70.6%
Cc1nn(C)c(C)c1NC(=O)CCCSc1nc(-c2ccco2)cc(C(F)(F)F)n1	inconclusive: -52.9%
C[C@]12CC[C@H](O)C[C@@H]1CC[C@@H]1[C@@H]2CC[C@@]2(C)[C@H]1CCC(=O)[C@]21CCCO1	inactive: -13.1%
COc1ccc(Nc2nnc(SC(C(=O)Nc3ccc(OC)c(Cl)c3)c3ccccc3)s2)cc1 (stereo not drawn)	inconclusive: -55.8%
CC(=O)c1c(C)[nH]c(C(=O)Nc2nc(-c3ccc(Cl)cc3)cs2)c1C	inconclusive: -43.4%
Cc1ccc(NC(=O)CCCCCN2C(=O)[C@@H]3Cc4ccccc4CN3C2=O)cc1	inconclusive: -43.7%
O=C(NCC1CCCO1)c1ccc2c(c1)ncn2-c1cccc(F)c1 (stereo not drawn)	inconclusive: -51.9%
O=C(NC1CCCCC1)c1cc2c(cc1Cl)N1CCCCCC1=NS2(=O)=O	active: -96.8%
Clc1cccc(CSc2nnc(-c3sccc3-n3cccc3)o2)c1	inconclusive: -55.1%
CC(C)Oc1ccc(C(CC(=O)NCCCN(C)C)c2ccc(F)cc2)cc1 (stereo not drawn)	inconclusive: -57.8%
COc1cc2c(cc1OC)C(C(=O)Nc1ccccc1N1CCN(C)CC1)C1c3ccccc3CCN1C2=O (stereo not drawn)	inactive: -39.6%
Cc1cccc(-c2n[nH]c(=S)n2/N=C/C=C/c2ccco2)c1	inactive: 46.1%
Cc1cc(C)c(NC(=O)CO/N=C2\CCCc3nonc32)c(C)c1	inconclusive: -47.9%
COc1cc(/C=N/Nc2ccc(Cl)cc2)ccc1OC(=O)c1cccs1	inactive: 21.9%
Cc1ccc2nc(-c3ccccn3)c(Nc3ccc(F)cc3)n2c1	active: -93.8%
O=C(O)c1ccc2c(c1)C(=O)/C(=C/c1ccccc1)C2=O	inconclusive: -44.3%
Cc1nn(C)c(C)c1NC(=O)CCl	active: -69.7%
Cc1ccc2nc(NC(=S)NC(=O)c3ccc(OC(C)C)cc3)sc2c1	inconclusive: 0%
CC(Oc1ccc(C(C)(C)C)cc1)C(=O)NC1CC(C)(C)NC(C)(C)C1 (stereo not drawn)	inconclusive: -55.7%
O=C(Cc1ccc(F)cc1)N1CCC(c2nc3c(nnn3Cc3ccc(Cl)cc3)c(=O)[nH]2)CC1	inactive: 11%
